# Values of other authors in US20140206748A1, “COMPOSITIONS AND METHODS RELATED TO PROSTATE CANCER” (Regents of the University of Minnesota, priority 2013, published 2014).
# At least one structure is not confirmed: it was looked up by name or label, or the drawing left a doubt.
# Test system: castration-resistant prostate cancer patients
# Conditions: Phase III trials; cited from earlier work
smiles,measurement,value
C[C@]12CC[C@H](O)CC1=CC[C@@H]1[C@@H]2CC[C@]2(C)C(c3cccnc3)=CC[C@@H]12 [abiraterone],increase of overall survival,3.9 months
